For this experiment, the system named is HEK293A TEAD-LUC reporter. In words: TEAD-luciferase reporter activity (YAP activation), robust Z score vs plate; higher = stronger YAP/TEAD activation. Conditions: 24 h.

Structures can show the parent of a compound that is named as a salt. Some of the results follow. Single values are uncertain here, since repeats match poorly.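 Human kidney-derived cells stably carry a construct in which eight TEAD-binding elements drive luciferase, measured by luminescence in a drug-repurposing library screen. A hit is any compound whose signal exceeds the plate mean by more than five robust Z scores.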

On to `CC(O)CO` (configuration not stated), for which the TEAD-luciferase reporter activity was inactive: -0.893 (compound concentration: 200 nM), inactive: -0.847 (compound concentration: 2 uM) and inactive: 0.27 (compound concentration: 10 uM).
`CNc1ccc(-c2cc3cc(O)ccc3o2)c(F)n1`: the TEAD-luciferase reporter activity runs as follows: (compound concentration: 200 nM) inactive: -0.122; (compound concentration: 2 uM) inactive: 4.26; (compound concentration: 10 uM) active: 5.19.
The corresponding values for `N=C(N)NNCCOc1c(Cl)cccc1Cl` are inactive: -0.422, inactive: -1.46 and inactive: -1.91.
In the case of `CCOc1ccc(CN2CCCCC23Cc2ccccc2CNC3=O)cc1` (configuration not stated), the TEAD-luciferase reporter activity was inactive: 1.1 (compound concentration: 200 nM) and inactive: 0.82 (compound concentration: 10 uM).
Turning to `CNC(=O)c1nn(C)c2c1C(C)(C)Cc1cnc(Nc3ccc(N4CCN(C)CC4)cc3)nc1-2` [milciclib maleate], the TEAD-luciferase reporter activity (compound concentration: 200 nM) was inactive: -0.436, the TEAD-luciferase reporter activity (compound concentration: 2 uM) is inactive: -2.26 and the TEAD-luciferase reporter activity (compound concentration: 10 uM) is inactive: -1.26.
Consider `CCOC(=O)C1=C[C@]2(CC)CCCN3CCc4c(n1c1ccccc41)[C@@H]32` [vinpocetine], for which the TEAD-luciferase reporter activity is inactive: -0.81 (compound concentration: 200 nM), inactive: 3.25 (compound concentration: 2 uM) and active: 12.2 (compound concentration: 10 uM).
The matching figures for `Nc1nc(NC2CC2)c2ncn(CCOCP(=O)(O)O)c2n1`: inactive: 0.453, inactive: -2.09 and inactive: 2.23.
In the case of `CC(C(=O)O)c1ccc(/C=C2\CCCC2=O)cc1` (configuration not stated), the TEAD-luciferase reporter activity (compound concentration: 200 nM) was inactive: -0.333, the TEAD-luciferase reporter activity (compound concentration: 2 uM) is inactive: -0.568 and the TEAD-luciferase reporter activity (compound concentration: 10 uM) was inactive: 2.3.
The corresponding values for `COc1ncccc1C(=O)NCCC1CCN(S(=O)(=O)NC(=O)NC[C@H]2C[C@@H]3C=C[C@H]2C3)CC1` [Gliamilide] are inactive: 0.0285, inactive: 0.401 and inactive: -0.684.
Turning to `COCCN1CCC(N(Cc2ccc(-c3ccc(C(F)(F)F)cc3)cc2)C(=O)Cn2c(SCc3cccc(F)c3F)cc(=O)c3ccccc32)CC1`, the TEAD-luciferase reporter activity (compound concentration: 200 nM) is inactive: -2.04, the TEAD-luciferase reporter activity (compound concentration: 2 uM) is inactive: -1.68 and the TEAD-luciferase reporter activity (compound concentration: 10 uM) is active: 6.46.
In the case of `CCS(=O)(=O)c1cc(C(=O)NCC2CCCN2CC2CC2)c(OC)cc1N` (configuration not stated), the TEAD-luciferase reporter activity by setting is: (compound concentration: 200 nM) inactive: -1.01; (compound concentration: 2 uM) inactive: -0.806; (compound concentration: 10 uM) inactive: 1.21.
For the compound `COc1c(N2C[C@@H]3CCCN[C@@H]3C2)c(F)cc2c(=O)c(C(=O)O)cn(C3CC3)c12` [Moxifloxacin hydrochloride], the TEAD-luciferase reporter activity reads like this: (compound concentration: 200 nM) inactive: -1.36; (compound concentration: 2 uM) inactive: -0.0363; (compound concentration: 10 uM) inactive: -0.549.
In the case of `COc1c(N2C[C@@H]3CCCN[C@@H]3C2)c(F)cc2c(=O)c(C(=O)O)cn(C3CC3)c12` [moxifloxacin punctum plug], the TEAD-luciferase reporter activity (compound concentration: 2 uM) was inactive: -1.29.
Still for that read-out and setting: as for `COc1c(N2C[C@@H]3CCCN[C@@H]3C2)c(F)cc2c(=O)c(C(=O)O)cn(C3CC3)c12`, the figure is inactive: -0.303.
As to `CCCCCCCCCCCC[N+](C)(C)CCOc1ccccc1`, the TEAD-luciferase reporter activity reads like this: (compound concentration: 200 nM) inactive: -2.11; (compound concentration: 2 uM) inactive: -1.26; (compound concentration: 10 uM) inactive: -1.52.
In the case of `Cc1cccc(C)c1NC(=O)CN1CCN([C@@H]2CCN(C(=O)c3cc(C(F)(F)F)cc(C(F)(F)F)c3)[C@@H](Cc3ccccc3)C2)CC1`, the TEAD-luciferase reporter activity (compound concentration: 200 nM) is inactive: 0.0682, the TEAD-luciferase reporter activity (compound concentration: 2 uM) is inactive: -1.04 and the TEAD-luciferase reporter activity (compound concentration: 10 uM) was inactive: -0.925.
The corresponding values for `CC[C@H](Nc1cc(C)nc2c(-c3ccc(OC)cc3C)c(C)nn12)c1nc(C)no1` [Verucerfont] are inactive: -0.69, inactive: -1.76 and inactive: -1.22.
In the case of `CN(C(=O)CCCOc1ccc2[nH]c(=O)ccc2c1)C1CCCCC1` [cilostamide], the TEAD-luciferase reporter activity (compound concentration: 2 uM) is inactive: 1.79.
Turning to `CN(C(=O)CCCOc1ccc2[nH]c(=O)ccc2c1)C1CCCCC1` [Cilostamide], the TEAD-luciferase reporter activity is, setting by setting: (compound concentration: 200 nM) inactive: -0.949; (compound concentration: 10 uM) inactive: -1.68.
Turning to `O=c1cc(-c2ccc(O)c(O)c2)oc2cc(O)cc(O)c12` [Digitoflavone], the TEAD-luciferase reporter activity (compound concentration: 2 uM) was inactive: 2.04.
Take `O=c1cc(-c2ccc(O)c(O)c2)oc2cc(O)cc(O)c12` [Luteolin]: the TEAD-luciferase reporter activity reads like this: (compound concentration: 200 nM) inactive: 4.89; (compound concentration: 10 uM) inactive: 1.18.
The matching figures for `CN(C)C(=O)NC1CC2(CCN(Cc3ccc(O)cc3)CC2)Oc2ccccc21` (configuration not stated): inactive: -0.239 and inactive: 1.11.
With `CC/C(=C(\c1ccc(O)cc1)c1ccc(OCCNC)cc1)c1ccccc1` [Endoxifen (hydrochloride)], the TEAD-luciferase reporter activity is inactive: -0.776 (compound concentration: 200 nM), inactive: -2.42 (compound concentration: 2 uM) and inactive: 1.88 (compound concentration: 10 uM).
Take `CC(=O)OC(C)C[N+](C)(C)C` (configuration not stated): the TEAD-luciferase reporter activity was inactive: 2.02 (compound concentration: 200 nM), inactive: 1.8 (compound concentration: 2 uM) and inactive: 1.89 (compound concentration: 10 uM).
For `CCN(CC)CCNC(=O)c1cc(Br)c(N)cc1OC` [bromopride], the TEAD-luciferase reporter activity was inactive: 0.209 (compound concentration: 200 nM), inactive: -0.0963 (compound concentration: 2 uM) and inactive: -0.569 (compound concentration: 10 uM).
In the case of `CN1CCN2c3ncccc3Cc3ccccc3C2C1` (configuration not stated), the TEAD-luciferase reporter activity runs as follows: (compound concentration: 200 nM) inactive: -0.787; (compound concentration: 10 uM) inactive: -0.426.
As for `CN1CCN2c3ncccc3Cc3ccccc3C2C1` (configuration not stated) [mirtazapine], the TEAD-luciferase reporter activity (compound concentration: 2 uM) is inactive: 0.512.
Turning to `CCN(CC(=O)NC)C(=O)c1cc(OC)c(OC)c(OC)c1`, the TEAD-luciferase reporter activity is, setting by setting: (compound concentration: 200 nM) inactive: -1.04; (compound concentration: 2 uM) inactive: -0.964; (compound concentration: 10 uM) inactive: 0.551.
The matching figures for `Nc1ccc(S(=O)(=O)c2ccc(NCC(=O)O)cc2)cc1`: inactive: -0.076, inactive: 0.547 and inactive: 0.353.
